Results are given in words; binding and its absence hold for the method and conditions named. In cells and extracts the contact can be indirect. A yes stands for co-enrichment or nearness to the bait. Other partners may have been found. Blank lines part the entries; values can stand above or below the binder they belong to.
Target: MAC-tagged GTPBP8 (human) (UniProt Q8N3Z3)
Test: proximity labelling; BioID: MAC-tagged GTPBP8 in U2OS cells, 50 uM biotin for 24 h, lysate on Strep-Tactin matrix, mass spectrometry; filtered against MAC-tagged GFP and the CRAPome

Sequences of proteins named here, by UniProt entry; tags and fusion partners are left off.
UniProt Q8N3Z3: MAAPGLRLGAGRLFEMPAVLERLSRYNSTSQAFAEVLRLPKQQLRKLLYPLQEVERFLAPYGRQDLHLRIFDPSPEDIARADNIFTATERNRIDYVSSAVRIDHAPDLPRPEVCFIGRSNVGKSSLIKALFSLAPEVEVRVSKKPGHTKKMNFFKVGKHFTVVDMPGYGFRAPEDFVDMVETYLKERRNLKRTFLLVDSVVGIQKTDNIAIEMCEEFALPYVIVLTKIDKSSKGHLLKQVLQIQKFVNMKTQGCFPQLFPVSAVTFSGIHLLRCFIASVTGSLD

binding: binds
B1: YARS2 (enzyme, UniProt Q9Y2Z4 17-477)
chain: TLNLSVLLPLGLRKAHSGAQGLLAAQKARGLFKDFFPETGTKIELPELFDRGTASFPQTIYCGFDPTADSLHVGHLLALLGLFHLQRAGHNVIALVGGATARLGDPSGRTKEREALETERVRANARALRLGLEALAANHQQLFTDGRSWGSFTVLDNSAWYQKQHLVDFLAAVGGHFRMGTLLSRQSVQLRLKSPEGMSLAEFFYQVLQAYDFYYLFQRYGCRVQLGGSDQLGNIMSGYEFINKLTGEDVFGITVPLITSTTGAKLGKSAGNAVWLNRDKTSPFELYQFFVRQPDDSVERYLKLFTFLPLPEIDHIMQLHVKEPERRGPQKRLAAEVTKLVHGREGLDSAKRCTQALYHSSIDALEVMSDQELKELFKEAPFSEFFLDPGTSVLDTCRKANAIPDGPRGYRMITEGGVSINHQQVTNPESVLIVGQHILKNGLSLLKIGKRNFYIIKWLQL

binding: binds
B2: IARS2 (enzyme, UniProt Q9NSE4 49-1012)
chain: SNHQPNSNSGRYRDTVLLPQTSFPMKLLGRQQPDTELEIQQKCGFSELYSWQRERKVKTEFCLHDGPPYANGDPHVGHALNKILKDIANRFHMMNGSKIHFVPGWDCHGLPIEIKVLSELGREAQNLSAMEIRKKARSFAKAAIEKQKSAFIRWGIMADWNNCYYTFDGKYEAKQLRTFYQMYDKGLVYRSYKPVFWSPSSRTALAEAELEYNPEHVSRSIYVKFPLLKPSPKLASLIDGSSPVSILVWTTQPWTIPANEAVCYMPESKYAVVKCSKSGDLYVLAADKVASVASTLETTFETISTLSGVDLENGTCSHPLIPDKASPLLPANHVTMAKGTGLVHTAPAHGMEDYGVASQHNLPMDCLVDEDGVFTDVAGPELQNKAVLEEGTDVVIKMLQTAKNLLKEEKLVHSYPYDWRTKKPVVIRASKQWFINITDIKTAAKELLKKVKFIPGSALNGMVEMMDRRPYWCISRQRVWGVPIPVFHHKTKDEYLINSQTTEHIVKLVEQHGSDIWWTLPPEQLLPKEVLSEVGGPDALEYVPGQDILDIWFDSGTSWSYVLPGPDQRADLYLEGKDQLGGWFQSSLLTSVAARKRAPYKTVIVHGFTLGEKGEKMSKSLGNVIHPDVVVNGGQDQSKEPPYGADVLRWWVADSNVFTEVAIGPSVLNAARDDISKLRNTLRFLLGNVADFNPETDSIPVNDMYVIDQYMLHLLQDLANKITELYKQYDFGKVVRLLRTFYTRELSNFYFSIIKDRLYCEKENDPKRRSCQTALVEILDVIVRSFAPILPHLAEEVFQHIPYIKEPKSVFRTGWISTSSIWKKPGLEEAVESACAMRDSFLGSIPGKNAAEYKVITVIEPGLLFEIIEMLQSEETSSTSQLNELMMASESTLLAQEPREMTADVIELKGKFLINLEGGDIREESSYKVIVMPTTKEKCPRCWKYTAESSDTLCPRCAEVVSGK
